Here are results for four molecules from publication PMC12059635.

Protein sequences, listed by entry. Tags and fused reporters are not part of them.
UniProt Q8C2B3: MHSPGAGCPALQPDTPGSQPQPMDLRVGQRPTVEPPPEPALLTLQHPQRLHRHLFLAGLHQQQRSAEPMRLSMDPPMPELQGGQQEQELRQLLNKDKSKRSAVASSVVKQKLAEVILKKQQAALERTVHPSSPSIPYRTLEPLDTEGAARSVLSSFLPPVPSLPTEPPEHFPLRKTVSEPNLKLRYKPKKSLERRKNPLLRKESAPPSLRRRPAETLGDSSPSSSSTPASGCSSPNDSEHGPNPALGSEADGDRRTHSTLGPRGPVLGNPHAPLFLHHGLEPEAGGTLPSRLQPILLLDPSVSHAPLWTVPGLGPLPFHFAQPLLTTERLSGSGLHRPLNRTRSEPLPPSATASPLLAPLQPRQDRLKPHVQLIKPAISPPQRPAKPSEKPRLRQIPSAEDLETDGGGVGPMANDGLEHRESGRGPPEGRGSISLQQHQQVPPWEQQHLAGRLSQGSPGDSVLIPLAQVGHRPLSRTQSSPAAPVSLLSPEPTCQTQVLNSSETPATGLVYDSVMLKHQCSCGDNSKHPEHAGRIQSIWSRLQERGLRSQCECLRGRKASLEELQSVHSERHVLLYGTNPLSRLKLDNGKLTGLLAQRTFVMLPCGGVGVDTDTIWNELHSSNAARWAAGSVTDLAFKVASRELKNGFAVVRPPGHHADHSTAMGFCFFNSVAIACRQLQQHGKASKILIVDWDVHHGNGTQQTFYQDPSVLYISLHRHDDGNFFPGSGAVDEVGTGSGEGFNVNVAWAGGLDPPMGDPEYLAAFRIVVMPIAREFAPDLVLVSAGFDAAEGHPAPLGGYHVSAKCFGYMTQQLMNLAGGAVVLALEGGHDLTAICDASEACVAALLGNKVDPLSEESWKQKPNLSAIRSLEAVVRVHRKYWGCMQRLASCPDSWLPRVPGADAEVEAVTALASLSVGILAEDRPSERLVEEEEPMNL
UniProt Q61881: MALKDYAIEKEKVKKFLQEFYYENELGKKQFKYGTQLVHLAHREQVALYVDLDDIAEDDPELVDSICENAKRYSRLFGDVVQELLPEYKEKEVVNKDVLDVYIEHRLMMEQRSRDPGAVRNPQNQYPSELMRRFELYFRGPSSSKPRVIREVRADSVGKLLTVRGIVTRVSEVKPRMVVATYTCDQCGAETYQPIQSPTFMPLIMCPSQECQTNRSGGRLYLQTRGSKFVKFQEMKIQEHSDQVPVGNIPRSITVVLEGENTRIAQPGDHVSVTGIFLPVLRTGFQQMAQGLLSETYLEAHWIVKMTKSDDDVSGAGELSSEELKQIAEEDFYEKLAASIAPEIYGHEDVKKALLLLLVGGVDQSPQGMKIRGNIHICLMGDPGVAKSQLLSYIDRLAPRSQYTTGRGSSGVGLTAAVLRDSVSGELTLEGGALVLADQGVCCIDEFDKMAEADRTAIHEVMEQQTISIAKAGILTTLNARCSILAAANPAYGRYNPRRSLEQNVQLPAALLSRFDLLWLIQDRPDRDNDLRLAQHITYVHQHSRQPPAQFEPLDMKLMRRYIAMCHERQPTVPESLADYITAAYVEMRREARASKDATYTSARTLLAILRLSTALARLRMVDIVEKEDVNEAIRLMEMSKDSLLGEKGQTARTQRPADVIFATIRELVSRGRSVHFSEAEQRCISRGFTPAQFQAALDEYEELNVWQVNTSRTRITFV
UniProt O70126: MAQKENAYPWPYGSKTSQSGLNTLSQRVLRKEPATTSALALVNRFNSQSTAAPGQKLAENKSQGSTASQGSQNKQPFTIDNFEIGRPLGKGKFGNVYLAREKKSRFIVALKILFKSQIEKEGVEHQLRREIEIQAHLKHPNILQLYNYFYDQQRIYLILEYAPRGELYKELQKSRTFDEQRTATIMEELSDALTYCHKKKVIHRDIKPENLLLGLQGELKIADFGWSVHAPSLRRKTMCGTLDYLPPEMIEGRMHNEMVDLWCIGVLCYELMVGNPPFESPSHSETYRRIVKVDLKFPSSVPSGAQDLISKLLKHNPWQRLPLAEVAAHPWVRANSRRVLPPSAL

The assay has as its target Histone deacetylase 7 (HDAC7), wild type (mouse) (UniProt Q8C2B3). Nature of the assay: affinity purification with mass spectrometry; lysates of Hdac7-WT or Hdac7-L112A OE NMCMs immunoprecipitated by FLAG antibody on beads; on-bead digestion, LC-MS/MS, label-free quantification (MaxQuant LFQ).

These are yes or no findings as the source states them, for the method shown. In cells and extracts the contact can be indirect. These calls come from enrichment with a bait or labelling near it, and not all partners need be listed.

Turning to “Minichromosome maintenance protein 7 (MCM7) (from UniProt Q61881 1-719)”, the binding result was “binds”. In the case of AURKB (from UniProt O70126 1-345), the binding entry is “binds”. On to CDK2 (from UniProt P97377 1-346), for which the binding entry was “binds”.

B1: SWI/SNF-related, matrix-associated actin-dependent regulator of chromatin, subfamily A, containing DEAD/H box 1 (SMARCAD1) (protein, UniProt Q04692 1-1021)
chain: MNLFNLDRFRFEKRSKIEEAPEAAPQPSQARPSSPISLSAEEENAEGEGSRANTPDSDVTEKTEDSSVPEPPDNERKASLSCFQNQRAIQEYIDLSSDTEDVSPNCSSTVQEKKFSKDTVIIVSEPSEDEESHDLPSVTRRNDSSELEDLSELEDLKDAKLQTLKELFPQRSDSDLLKLIESTSTMDGAIAAALLMFGDAGGGPRKRKLSSSSEEDDVNDDQSVKQPRGDRGEESNESAEASSNWEKQESIVLKLQKEFPNFDKQELREVLKEHEWMYTEALESLKVFAEDQDVQCASQSEVTNGKEVARNQNYSKNATKIKMKQKISVKPQNGFNKKRKKNVFNPKKAVEDSEYDSGSDAGSSLDEDYSSCEEVMEDGYKGKILHFLQVSSIAELTLIPKCSQKKAQKITELRPFNNWEALFTKMSKINGLSEDLIWNCKTVIQERDVVIRLMNKCEDISNKLTKQVTMLTGNGGGWNREQPSLLNQSLSLKPYQKVGLNWLALVHKHGLNGILADEMGLGKTIQAIAFLAYLFQEGNKGPHLIVVPASTIDNWLREVNLWCPSLNVLCYYGSQEERKQIRFNIHNKYEDYNVIVTTYNCAISSSDDRSLFRRLKLNYAIFDEGHMLKNMGSIRYQHLMTINARNRLLLTGTPVQNNLLELMSLLNFVMPHMFSSSTSEIRRMFSSKTKPADEQSIYEKERIAHAKQIIKPFILRRVKEEVLKLLPPKKDRIELCAMSEKQEQLYSGLFNRLKKSINNLEKNTEMCNVMMQLRKMANHPLLHRQYYTPEKLKEMSQLMLKEPTHCEANPDLIFEDMEVMTDFELHVLCKQYQHINSYQLDMDLILDSGKFRALGCILSELKQKGDRVVLFSQFTMMLDILEVLLKHHQHRYLRLDGKTQISERIHLIDEFNTDMDIFVFLLSTKAGGLGINLTSANVVILHDIDCNPYNDKQAEDRCHRVGQTKEVLVIKLISQGTIEESMLKINQQKLKLEQDMTTVDEADEGSMPADIATLLKTSMGL
B1: the binding entry is on record as “binds”.
